# In PubChem BioAssay AID2685 (National Center for Advancing Translational Sciences (NCATS), 2010):
# The campaign covered roughly 320,000 compounds. About 2,100 (0.66%) were called active. Inconclusive means that the source gave no clear call. Such entries were picked first, then a sample of the others. The call rests on the fitted dose curve; in most records, active means well fitted inhibition curve with a large enough effect in the signal ratio, with a control signal flat (not every such curve was filed as active); inconclusive means small, poorly fitted or top-dose-only effect, or effect the other way, or a change in a side signal; inactive means flat fitted curve, though single readings scatter; the % refers to the signal ratio. Where the call is inconclusive, the potency comes from a doubtful curve fit.
# Experiment: qHTS Assay for Lipid Storage Modulators in Drosophila S3 Cells
# Conditions: BODIPY lipid droplet fluorescence, 18-24 h, cells fed with added oleic acid; lipid storage change, negative = inhibition: at 46.1 µM (top of the series) unless noted
# Outline: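 Drosophila S3 cells loaded with oleic acid (400 uM, as added) and compounds at several concentrations; lipid droplets imaged by 488-nm laser-scanning cytometry, 500–530 nm intensity and object ratio to cell channel. Percent activity normalized to 20 uM Triacsin C.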
# On the % scale 0 is the no-effect control and ±100 the full control effect; potency means the concentration at half of the fitted maximal effect.
SMILES,"lipid storage change, negative = inhibition",Potency
COC(=O)c1c(NC(=O)CN2CCC3(O)CCCCC3C2c2ccc(F)cc2)sc(C)c1C (stereo unspecified),inconclusive: 6.87%,
CCc1cc(C(=O)OC)c(NC(=O)CC2Nc3cc(C)c(C)cc3NC2=O)s1 (stereo unspecified),inactive,
COc1ccc(C(=O)C2CCCN(C(=O)c3ccc(F)cc3)C2)cc1OC (stereo unspecified),inconclusive: 2.78%,
Cc1cc(CNC(=O)COc2ccc(C#N)cc2)c2ccccc2n1,,"inconclusive: 29100 nM [falling, single point]"
Cc1ccc(NS(=O)(=O)c2ccc(Br)s2)cc1S(=O)(=O)N1CCOCC1,inconclusive: -26.9% [cytotoxic],
CC1=CC(C)(C)N(C)C(=O)N1c1ccc(Cl)cc1,inconclusive: -12%,
c1ccc(-c2ccccc2OCCOCCN2CCc3ccccc3C2)cc1,inconclusive: -46.3%,
COc1ccc(C(=O)OCC(=O)Nc2cc(C)c(C)cc2[N+](=O)[O-])cc1,inactive,
CC1=C(C)CC(C(=O)NCc2cccc(Cl)c2)C(C(=O)O)C1 (stereo unspecified),inconclusive: 46.4%,
COCC(C)n1c(SCC(=O)Nc2nccs2)nc2ccccc2c1=O (stereo unspecified),,"inconclusive: 1030 nM [falling, full curve, poor fit]"
O=C(OCC(=O)N1CCCC1)c1cc(Br)ccc1Cl,,"inconclusive: 3260 nM [falling, partial curve, poor fit]"
CCOc1ccccc1C(=O)NCC(=O)OCCOc1cccc(Cl)c1,,"inconclusive: 580 nM [falling, single point]"
CCCCN(CCCC)CCNC(=O)c1cn(CC)c2ccc(S(=O)(=O)N(C)C3CCCCC3)cc2c1=O,inconclusive: -64.7%,
Cc1sc2nc[nH]c(=O)c2c1-c1ccc(Cl)cc1,inconclusive: -28.2%,
c1ccc2c(c1)CC(CN1CCNCC1)O2 (stereo unspecified),,"inconclusive: 580 nM [falling, single point]"
Cc1ccc(N2C(=O)CC(Sc3cccs3)C2=O)cc1 (stereo unspecified),inconclusive: -1.83%,
Cc1nnc2ccc(-c3ccc(NC(=O)c4ccc(Cl)nc4)cc3)nn12,inconclusive: -12.8% [at 9.22 µM],
O=C(CSc1ncnc2nc[nH]c12)NCCc1ccccc1,,"inconclusive: 731 nM [falling, full curve, poor fit]"
C=C(C)Cn1c(=O)c2c(nc3n2CCN3c2cccc(Cl)c2C)n(C)c1=O,inconclusive: 40%,

SMILES,"lipid storage change, negative = inhibition",Potency
CCN(Cc1ccncc1)C(=O)c1cc(COc2ccc(F)cc2Cl)on1,inconclusive: -23.1%,
CCn1c(=O)c2sccc2n(CC(=O)NC2CCCC2)c1=O,inconclusive: -23.8%,
CC(C)CN(C(=O)CN1C(=O)C2CCCCC2C1=O)c1c(N)n(Cc2ccccc2)c(=O)[nH]c1=O (stereo unspecified),,"inconclusive: 731 nM [falling, partial curve, poor fit]"
NS(=O)(=O)c1ccc(CCNC(=O)COC(=O)/C=C/c2ccccc2Cl)cc1,inconclusive: -9.49%,
Cc1cc(C(=O)OCC(=O)NC2CC2)c2ccccc2n1,inconclusive: -25.6%,
CCn1ccnc1C(O)c1ccc(N(C)C)cc1 (stereo unspecified),inconclusive: -9.64%,
COc1cc2c(cc1OC)C(C)N(C(=O)C1=NN(c3cccc(C)c3)C(=O)CC1)CC2 (stereo unspecified),inconclusive: 17.4%,
C=C1CC2C3CC[C@@]4(OCOC45COCO5)[C@@]3(C)C(O)CC2[C@@]2(C)CCC(=O)C=C12 (stereo partly specified),,"inconclusive: 25900 nM [falling, partial curve, poor fit]"
CN(c1ccc(C(=O)N2CCOCC2)cc1)S(=O)(=O)c1ccc(Cl)cc1,,"inconclusive: 20600 nM [activator, single point]"
COc1cccc(CSc2nc3cc4c(cc3cc2C)OCCO4)c1,inconclusive: 12.9%,
Cc1cccc(N2C(=O)C3CCC(c4ccccc4)CC3C2=O)c1 (stereo unspecified),,"inconclusive: 14600 nM [activator, partial curve]"
CCCC12CN3CC(C)(CN(C1)C31C(=O)Nc3ccc(C)cc31)C2=O (stereo unspecified),,"inconclusive: 1460 nM [activator, partial curve, poor fit]"
CCC(C)[C@H](NC(=O)Nc1cccc(OC)c1)C(=O)OC (stereo partly specified),inconclusive: 92.3%,
CCOc1ccc(/C=N/NC(=O)c2cc(-c3ccco3)nc3ccccc23)cc1,,"inconclusive: 29100 nM [falling, single point]"
O=C(NC(=S)Nc1ccc(N2CCOCC2)c(Cl)c1)c1cccs1,inconclusive: -16.6%,
CCN(CC)C(=O)NCc1c(C)cc(C)cc1C,inconclusive: 1.08%,
CCOC(=O)c1[nH]c2ccccc2c1NC(=O)COC,inconclusive: -0.456%,
CCOC(=O)C1=C(C)NC2=C(C(=O)C(C(=O)OCC)C(c3ccco3)C2)C1c1ccccn1 (stereo unspecified),,"inconclusive: 2310 nM [activator, single point]"
COc1cccc(NC(=O)Nc2cc(NC(=O)Nc3cccc(OC)c3)c(C)nc2C)c1,inconclusive: 11.5%,

# Among those listed so far, seven contain a thiophene ring, fused or not.
SMILES,"lipid storage change, negative = inhibition",Potency
COC(=O)c1c(NC(=O)CN2CCC3(O)CCCCC3C2c2ccc(F)cc2)sc(C)c1C (stereo unspecified),inconclusive: 6.87%,
CCc1cc(C(=O)OC)c(NC(=O)CC2Nc3cc(C)c(C)cc3NC2=O)s1 (stereo unspecified),inactive,
Cc1ccc(NS(=O)(=O)c2ccc(Br)s2)cc1S(=O)(=O)N1CCOCC1,inconclusive: -26.9% [cytotoxic],
Cc1sc2nc[nH]c(=O)c2c1-c1ccc(Cl)cc1,inconclusive: -28.2%,
Cc1ccc(N2C(=O)CC(Sc3cccs3)C2=O)cc1 (stereo unspecified),inconclusive: -1.83%,
CCn1c(=O)c2sccc2n(CC(=O)NC2CCCC2)c1=O,inconclusive: -23.8%,
O=C(NC(=S)Nc1ccc(N2CCOCC2)c(Cl)c1)c1cccs1,inconclusive: -16.6%,

# (cont.)

SMILES,"lipid storage change, negative = inhibition",Potency
CC(C)c1ccccc1OCCCCCNCCO,inconclusive: 12.2%,
CCN(CC(=O)Nc1ccc(NC(C)=O)cc1)C(=O)c1ccc(COc2ccccc2)o1,,"inconclusive: 2590 nM [falling, partial curve]"
COC(=O)C1=C(C)N=C2SC(C#N)=C(N)N2C1c1cccc(OC)c1 (stereo unspecified),inactive,
CCC(=O)Nc1ccc(-c2ccc(N3CCC(C)CC3)nn2)cc1,,"inconclusive: 5170 nM [activator, partial curve]"
CSCCC(NS(=O)(=O)c1ccc2c(c1)OCCO2)C(=O)N(C)Cc1ccc(F)cc1 (stereo unspecified),inconclusive: 15%,
CC(C)c1ccc(CN2CCN(C(=O)CCl)CC2)cc1,inconclusive: 36.7%,
Nc1ncnc2c1nc(N1CCCCC1)n2[C@@H]1O[C@H](CO)[C@@H](O)[C@H]1O,inconclusive: 60.3%,
O=C(NNc1c2ccccc2nc2ccccc12)c1ccccc1Cl,inconclusive: -16.9%,
COc1ccc(O)c(/C=N/NC(=S)NCCc2ccccc2)c1,inconclusive: -100%,
Cc1nn(CC(=O)O)c(C)c1NC(=O)c1cccs1,inconclusive: 197%,
Clc1ccc(-n2nnnc2-c2cnc(-c3ccccn3)nc2-c2cccs2)cc1,inconclusive: -65.3%,
CN1C(=O)c2ccc(NC(=O)c3ccc(Cl)cc3Cl)cc2C1=O,,"inconclusive: 29100 nM [falling, single point]"
COc1ccc(C2C(C#N)=C(N)N(c3sc4c(c3C#N)CCCC4)C3=C2C(=O)CC(C)(C)C3)cc1OC (stereo unspecified),,"inconclusive: 2310 nM [activator, partial curve, poor fit]"
COc1cccc(C2CC(c3ccc(Cl)cc3Cl)n3nc(N)nc3N2)c1 (stereo unspecified),inconclusive: 13.7%,
CC(=O)N1c2ccc(S(=O)(=O)N(C)Cc3ccco3)cc2CC1C (stereo unspecified),,"inconclusive: 8200 nM [activator, partial curve]"
CCN(CC)c1ccc(C(=O)N/N=C(\C)c2cccc(OC)c2)cc1,,"inconclusive: 2060 nM [activator, single point]"
Cc1snc(SCc2cccc(Cl)c2)c1C#N,,"inconclusive: 29100 nM [activator, single point]"
CCCCn1c(N)c(N(C)C(=O)c2ccc(OCC3CCCO3)cc2)c(=O)[nH]c1=O (stereo unspecified),inconclusive: -39.4%,

# Reprinted at random: two compounds from above, in no set order.
SMILES,"lipid storage change, negative = inhibition",Potency
C=C1CC2C3CC[C@@]4(OCOC45COCO5)[C@@]3(C)C(O)CC2[C@@]2(C)CCC(=O)C=C12 (stereo partly specified),,"inconclusive: 25900 nM [falling, partial curve, poor fit]"
CCOC(=O)c1[nH]c2ccccc2c1NC(=O)COC,inconclusive: -0.456%,
